Data reported in PubChem BioAssay AID1259415 (National Center for Advancing Translational Sciences (NCATS), 2018).
Screen size: about 410,000 compounds; about 18,000 (4.4%) were called active. This list was built around the results that the source calls inconclusive (neither active nor inactive); the mix of calls is not that of the screen. Cut-off read from the data, not from the text of the source: active = activity change below about -60%; inconclusive = no clear call, values can overlap the other calls; inactive = above about -39%.

Test: qHTS Assay for inhibitors of the human cytomegalovirus (HCMV)
Conditions: HFF cells, HCMV-luciferase reporter, 72 h; at 57.5 µM; active compounds read low
How it was run: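 HFF cells seeded 16 h at 37C, treated with compounds, infected with luciferase-reporter HCMV at MOI 1 PFU/cell; luciferase read at 72 h post infection, normalized to buffer-only and Salinomycin controls.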
% is set by controls: 0 for no effect and ±100 for the full control effect.

| SMILES | activity change, negative = inhibition |
| --- | --- |
| Cc1cccc2cc3c(NC(=O)C(C)(C)C)nn(CC(C)C)c3nc12 | inactive: 15.5% |
| C#CCn1c(=NC(=O)c2cccs2)sc2cccc(OC)c21 | active: -97.7% |
| O=C(Cc1ccccn1)c1ccc(Cl)cc1 | active: -68.3% |
| Cc1ccccc1OCC(O)CN(CCO)Cc1ccccc1 (stereo not given) | inconclusive: -47% |
| COc1cccc2c1CCC(NC(C)=O)C2=O (stereo not given) | inconclusive: -42% |
| COc1ccc(C2CC(c3ccc4ccccc4c3)=NN2C(=O)CN2CCC(C(N)=O)CC2)cc1 (stereo not given) | inactive: 83.8% |
| Cc1nc2ccccn2c1P(=S)(N1CCCCC1)N1CCCCC1 | inconclusive: -43.6% |
| COc1ccc(Cc2nnc(Nc3ccc4c(c3)OCCO4)[nH]c2=O)cc1 | inconclusive: -41.3% |
| CC(C)NC(=O)C1(C)CSCC(=O)N1Cc1ccco1 (stereo not given) | inactive: -6.02% |
| O=[N+]([O-])c1cc([N+](=O)[O-])c(Oc2c(F)cc(F)cc2F)cc1NN1CCCCC1 | inconclusive: -44.4% |
| O=[N+]([O-])c1ccc(Cl)c(S(=O)(=O)/N=C(/c2ccccc2)N2CCOCC2)c1 | active: -105% |
| Cc1cc(C(=O)N/N=C/c2cc(Br)ccc2OC(=O)c2ccccc2Cl)n[nH]1 | inconclusive: -54.3% |
| CC(=O)N1CCN(c2ccc(N)cc2)CC1 | active: -73.7% |
| COc1ccc(CCNC2CC(C)N(C)CC2C)cc1OC (stereo not given) | inactive: 10.8% |
| C=C1C(=O)[C@@]23[C@H](O)C[C@@H]4C(C)(C)CC[C@H](O)[C@@]4(C)[C@@H]2CC[C@@H]1[C@H]3O | active: -97% |
| CC(CCc1ccccc1)NC(=O)Cc1cccs1 (stereo not given) | inactive: -1.93% |
| Cc1ccc(NC(=O)c2ccc(N3CCOCC3)c([N+](=O)[O-])c2)cc1S(=O)(=O)N1CCOCC1 | active: -97.9% |
| Cc1ccccc1C(=O)NCCN1CCOCC1 | inconclusive: -40.1% |
| O=C(O)C1(Cc2nc3ccccc3[nH]2)CCCC1 | inactive: 24.1% |
| O=C1/C(=C/c2cccnc2)SC(=S)N1c1ccc(F)cc1 | inconclusive: -43.8% |
| COc1ccc(NC(=O)c2cccn(Cc3ccc(Cl)cc3)c2=O)c(OC)c1 | active: -69.6% |
| O=C(CCNC(=O)c1ccco1)Nc1ccc(Cl)cc1F | inconclusive: -42% |
| Cc1ccc(NC(=O)C2CCN(S(=O)(=O)c3cccc(C(F)(F)F)c3)CC2)nc1 | active: -93.6% |
| CCC(=O)Nc1ccc2nc(SCCOc3ccc(C)cc3)sc2c1 | inconclusive: -47.7% |
| O=C(CSc1nnc(C2COc3ccccc3O2)o1)N1CCCC1 (stereo not given) | inconclusive: -43% |
| CC(C)(C)c1ccc(C(=O)O[C@H]2[C@H](Cc3ccccc3)NS(=O)(=O)[C@H]3C[C@@H]4C=C[C@]23O4)cc1 | inactive: 5.46% |
| CCOc1ccc(-c2csc(/C(C#N)=C/c3ccc(Br)cc3)n2)cc1 | inactive: -10.5% |
| COc1cccc(-c2csc(N3CCN(C(=S)Nc4ccc(Cl)cc4)CC3)n2)c1 | inactive: 33% |

A different layout for some results above.
SMILES | activity change, negative = inhibition
COc1ccc(C2CC(c3ccc4ccccc4c3)=NN2C(=O)CN2CCC(C(N)=O)CC2)cc1 (stereo not given) | inactive: 83.8%
Cc1nc2ccccn2c1P(=S)(N1CCCCC1)N1CCCCC1 | inconclusive: -43.6%
COc1ccc(Cc2nnc(Nc3ccc4c(c3)OCCO4)[nH]c2=O)cc1 | inconclusive: -41.3%
CC(C)NC(=O)C1(C)CSCC(=O)N1Cc1ccco1 (stereo not given) | inactive: -6.02%
O=[N+]([O-])c1cc([N+](=O)[O-])c(Oc2c(F)cc(F)cc2F)cc1NN1CCCCC1 | inconclusive: -44.4%
O=[N+]([O-])c1ccc(Cl)c(S(=O)(=O)/N=C(/c2ccccc2)N2CCOCC2)c1 | active: -105%
Cc1cc(C(=O)N/N=C/c2cc(Br)ccc2OC(=O)c2ccccc2Cl)n[nH]1 | inconclusive: -54.3%
CC(=O)N1CCN(c2ccc(N)cc2)CC1 | active: -73.7%
COc1ccc(CCNC2CC(C)N(C)CC2C)cc1OC (stereo not given) | inactive: 10.8%
C=C1C(=O)[C@@]23[C@H](O)C[C@@H]4C(C)(C)CC[C@H](O)[C@@]4(C)[C@@H]2CC[C@@H]1[C@H]3O | active: -97%
CC(CCc1ccccc1)NC(=O)Cc1cccs1 (stereo not given) | inactive: -1.93%
Cc1ccc(NC(=O)c2ccc(N3CCOCC3)c([N+](=O)[O-])c2)cc1S(=O)(=O)N1CCOCC1 | active: -97.9%
Cc1ccccc1C(=O)NCCN1CCOCC1 | inconclusive: -40.1%
O=C(O)C1(Cc2nc3ccccc3[nH]2)CCCC1 | inactive: 24.1%

Remaining list, next part

| SMILES | activity change, negative = inhibition |
| --- | --- |
| CCN(C(=O)CSc1nc2ccc(Cl)cc2[nH]1)C1CCS(=O)(=O)C1 (stereo not given) | inconclusive: -45.5% |
| OC(c1ccc(F)cc1)c1nc(-c2ccncc2)cs1 (stereo not given) | inconclusive: -42.9% |
| O=Cc1ccc(OCc2nnsc2Cl)cc1 | inconclusive: -42.6% |
| Cc1nn(CC(=O)Nc2ccccc2F)c(=O)c2c(C)n(-c3ccc(Cl)cc3)nc12 | inconclusive: -47.8% |
| CCOC(=O)C1(Cc2ccccc2)CCCN(Cc2cccc(C(C)=O)c2)C1 (stereo not given) | inactive: -15% |
| O=C(COc1ccc([N+](=O)[O-])cc1)N(C1CCCCC1)C1CCS(=O)(=O)C1 (stereo not given) | inconclusive: -40.2% |
| COc1ccccc1-c1ccc([C@@H]2C[C@H]3[C@@H](CN2)CON3C)cc1 | inactive: 41.8% |
| O=C1c2cccc3cccc(c23)C(=O)N1CCN1CCN(CC(O)COCc2ccc(Cl)cc2)CC1 (stereo not given) | active: -79.2% |
| CC(=C/c1ccccc1)/C=N/n1c(-c2ccncc2)n[nH]c1=S | inconclusive: -50.6% |
| O=C(CCCN1C(=O)/C(=C/c2ccccc2)SC1=S)NCCCn1ccnc1 | active: -97.6% |
| NCCCC[C@@H](C(=O)N1CCNCC1)n1cc([C@@H](N)CO)nn1 | inactive: -12.1% |
| COc1ccccc1-n1c(-c2ccccc2Br)nc2ccccc2c1=O | inconclusive: -46.3% |
| COC(=O)c1cc(S(=O)(=O)C(C)C)c(S(C)=O)s1 (stereo not given) | active: -66.4% |
| C=CCC[C@@H](Cc1ccc(F)cc1)C(=O)OC[C@@H](Cc1c[nH]c2ccccc12)NC(=O)[C@H](CC=C)CC(=O)N[C@H](CO)Cc1ccccc1 | inconclusive: -42% |
| COc1cc(N=CC2=C(O)c3ccccc3C2=O)cc(OC)c1 | inconclusive: -54.8% |
| N#CC(C(=O)NC1CCCCC1)=C1CCCCC1 | inconclusive: -47.6% |
| CCN(C(=O)c1cc2c(C)nc3ccccc3c2o1)c1cc(Cl)ccc1OC | inconclusive: -48.4% |
| CC1CN(S(=O)(=O)c2ccc(NC(=O)c3cc(-c4ccccc4O)n[nH]3)cc2)CC(C)O1 (stereo not given) | active: -97.5% |
| CC(C)(C)OC(=O)NCCCC[C@H](NC(=O)c1[nH]cnc1C(=O)N[C@@H](Cc1ccccc1)C(=O)OC(C)(C)C)C(=O)OC(C)(C)C | inconclusive: -48.6% |
| S=C1SCN(Cc2cccnc2)CN1Cc1cccnc1 | active: -95% |
| CC(C)CN(CC(C)C)S(=O)(=O)c1ccc(C(=O)Nc2sc3c(c2C(N)=O)CC(C)(C)NC3(C)C)cc1 | active: -97.1% |
| N#C/C(=C(/O)CCl)c1nnc2n1CCCCC2 | inconclusive: -48.3% |
| COc1ccccc1N1CCN(C(c2ccc(Cl)cc2)c2nnnn2C(C)(C)C)CC1 (stereo not given) | active: -65.8% |
| C=C(C)COc1ccc2c(C)c(CCC(=O)N3C[C@H]4C[C@@H](C3)c3cccc(=O)n3C4)c(=O)oc2c1 | inconclusive: -40.8% |
| Cc1c(Cl)cccc1NC(=O)Cn1cc(C(=O)c2cccs2)c2ccccc21 | active: -95.6% |
| COn1c(-c2ccc(Cl)cc2Cl)nc2ncccc21 | active: -63.6% |
| Cn1cc(C(=O)OCC(=O)N2CCCC2)c2ccccc21 | inconclusive: -46% |
